Data on two molecules can be found in PMC5297800.

Protein sequences, listed by entry. Tags and fused reporters are not part of them.
UniProt P63159: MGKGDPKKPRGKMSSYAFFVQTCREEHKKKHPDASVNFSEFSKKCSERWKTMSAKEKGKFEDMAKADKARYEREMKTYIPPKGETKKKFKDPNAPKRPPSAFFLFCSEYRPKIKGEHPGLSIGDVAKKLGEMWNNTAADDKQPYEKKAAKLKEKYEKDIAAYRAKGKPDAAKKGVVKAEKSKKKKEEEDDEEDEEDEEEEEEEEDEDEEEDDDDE
UniProt P18757: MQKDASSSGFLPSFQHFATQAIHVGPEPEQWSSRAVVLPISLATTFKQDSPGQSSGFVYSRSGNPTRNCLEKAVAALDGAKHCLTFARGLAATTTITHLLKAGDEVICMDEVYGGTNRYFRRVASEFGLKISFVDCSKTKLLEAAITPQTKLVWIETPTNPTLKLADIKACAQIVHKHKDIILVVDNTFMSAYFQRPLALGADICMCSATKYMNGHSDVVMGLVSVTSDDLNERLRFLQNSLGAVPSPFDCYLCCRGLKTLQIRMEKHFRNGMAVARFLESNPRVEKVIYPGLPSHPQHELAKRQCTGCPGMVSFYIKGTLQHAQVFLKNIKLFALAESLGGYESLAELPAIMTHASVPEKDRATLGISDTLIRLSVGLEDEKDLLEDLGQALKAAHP

This experiment addresses High-mobility group box 1 (cytoplasmic) (rat (endogenous in Lewis rat liver)) (UniProt P63159). As to the kind of experiment: affinity purification with mass spectrometry; co-IP of rat liver cytoplasmic extract (WI/R 60 min ischemia, 6 h reperfusion; normal liver as comparison) with anti-HMGB1 (N-terminal), 10 mg extract to 10 µg antibody; eluates separated by 2DE, silver stained; spots seen only in WI/R gels excised and identified by MS/MS.

Results are given in words; binding and its absence hold for the method and conditions named. In cells and extracts the contact can be indirect. These calls come from enrichment with a bait or labelling near it, and not all partners need be listed.

Regarding “Cystathionine γ-lyase (from UniProt P18757 1-398) (enzyme)”, the binding entry was “binds”.

B1: Betaine-homocysteine S-methyltransferase 1 (enzyme, UniProt O09171 1-407)
chain: MAPIAGKKAKRGILERLNAGEVVIGDGGFVFALEKRGYVKAGPWTPEAAVEHPEAVRQLHREFLRAGSNVMQTFTFYASEDKLENRGNYVAEKISGQKVNEAACDIARQVADEGDALVAGGVSQTPSYLSCKSETEVKKIFHQQLEVFMKKNVDFLIAEYFEHVEEAVWAVEALKTSGKPIAATMCIGPEGDLHGVSPGECAVRLVKAGAAIVGVNCHFDPSTSLQTIKLMKEGLEAARLKAYLMSHALAYHTPDCGKQGFIDLPEFPFGLEPRVATRWDIQKYAREAYNLGVRYIGGCCGFEPYHIRAIAEELAPERGFLPPASEKHGSWGSGLDMHTKPWIRARARKEYWQNLRIASGRPYNPSMSKPDAWGVTKGAAELMQQKEATTEQQLRALFEKQKFKSAQ
As for B1, the binding result is listed as “binds”.
